Assay results reported in patent publication US6429297B1, “Modified avidin and streptavidin and methods of use thereof” (University of Rochester, priority 1995, dated 2002).
Some results were stated once for a whole list of compounds, not compound by compound.

Test: biodistribution and gamma camera imaging of ^131I-labelled modified SA and Avid in rabbits
Conditions: C-30 centricon ultrafiltration of urine

Avid-E/N: avidin both neutralized and deglycosylated
urine activity that was protein bound: greater than 90%
